The experiment concerns the target T1, Flag-tagged SPARC (secreted protein acidic and cysteine-rich), full length (1-303) (UniProt P09486).
T1 sequence: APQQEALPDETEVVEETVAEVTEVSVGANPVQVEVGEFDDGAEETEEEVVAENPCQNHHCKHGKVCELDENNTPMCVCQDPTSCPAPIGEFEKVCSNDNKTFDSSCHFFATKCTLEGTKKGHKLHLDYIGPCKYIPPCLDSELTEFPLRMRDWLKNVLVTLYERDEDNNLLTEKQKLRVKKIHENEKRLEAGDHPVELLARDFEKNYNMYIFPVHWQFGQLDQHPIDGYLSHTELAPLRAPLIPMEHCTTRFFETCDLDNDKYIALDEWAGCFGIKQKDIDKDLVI
Kind of experiment: affinity purification with mass spectrometry; Caco-2 cells transfected with Flag-SPARC, IP lysis buffer, anti-FLAG magnetic beads, washed 4 times with IP lysis buffer, SDS-PAGE, bands cut out, trypsin, LC-MS/MS.

Sequences of proteins named here, by UniProt entry; tags and fusion partners are left off.
UniProt P19474: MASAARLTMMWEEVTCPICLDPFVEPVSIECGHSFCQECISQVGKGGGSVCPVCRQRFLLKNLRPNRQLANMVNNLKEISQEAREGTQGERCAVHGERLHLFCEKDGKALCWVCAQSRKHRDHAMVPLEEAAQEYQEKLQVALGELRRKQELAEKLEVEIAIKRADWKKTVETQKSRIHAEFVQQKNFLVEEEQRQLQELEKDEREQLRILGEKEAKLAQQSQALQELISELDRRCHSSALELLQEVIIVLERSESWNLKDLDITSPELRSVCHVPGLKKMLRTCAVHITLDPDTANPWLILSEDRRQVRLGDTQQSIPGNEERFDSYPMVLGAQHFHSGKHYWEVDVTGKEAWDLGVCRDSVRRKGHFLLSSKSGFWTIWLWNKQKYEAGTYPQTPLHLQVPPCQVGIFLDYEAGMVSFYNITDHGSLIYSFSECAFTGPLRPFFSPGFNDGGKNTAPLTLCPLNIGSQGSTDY

These are yes or no findings as the source states them, for the method shown. In cells and extracts the contact can be indirect. A yes stands for co-enrichment or nearness to the bait. Other partners may have been found. Tags and fused reporters may be left off the sequences shown.

With “TRIM21, endogenous in Caco-2 cells (from UniProt P19474 1-475) (enzyme)”, the binding result was “binds”.

The values are drawn from publication PMC11923920.
